Results on 1 sequence are retold here after PMC11241748, “DNA Repair Protein XRCC1 Stimulates Activity of DNA Polymerase λ under Conditions of Microphase Separation”.

The exact form of at least one protein or probe is not confirmed. At least one verdict rests on a figure or table, not on a statement of the authors.

The data set relates to XRCC1 + DNA polymerase lambda (Pol λ). Kind of data set: fluorescence microscopy (colocalization in microphases). As to conditions: 5'-phosphate on downstream strand (5' margin of gap); activity assay: 50 mM Tris-HCl pH 7.5, 5 mM Mg2+, 0.5 mM DTT, 0.25 mg/mL BSA; recombinant protein; protein details: His-tag,His-tag; label: 5'-FAM on upstream strand.

As to “GGCGATTAAGTTGGG / AACGTCAGGGTCTTCC / GGAAGACCCTGACGTTGCCCAACTTAATCGCC [FAM-gap-DNA]”, the binding result was “binds”.
